Measured values as given in patent US5879657A (The Dupont Merck Pharmaceutical Company, priority 1994, dated 1999).

Tests used:
[1] = general procedure: Boc solid-phase peptide synthesis; Oxime resin (substitution level 0.96 mmol/g, or Novabiochem 0.62 mmol/g); HBTU or TBTU; details: for isolated yield: whole synthesis, overall; for conjugation yield: conjugation step
[2] = peptide synthesis; details: TFA salt
[3] = late stage modification step, acetate salt
[4] = late stage modification step, TFA salt
[5] = late stage modification step, on protected cyclic peptide, TFA salt

Row | Substance | step yield ([1]; purification step, TFA salt) | isolated yield ([1]; TFA salt) | other results
1 | Cyclo-(D-Abu-NMeArg-Gly-Asp-Mamb([^99m TcO(MeMAG2 gaba)]^- -5-Aca)) | 5.8% recovery | overall yield 2.1% | step yield [1, 3]: 79%
2 | Boc-D-Lys(Tfa)-N-MeArg(Tos)-Gly-Asp(OBzl)-Mamb | – | – | step yield ([1]; coupling step, TFA salt): 78%
3 | Cyclo-([[^99m TcO(MA-MAMA)]-D-Lys]-NMeArg-Gly-Asp-Mamb) | 15.5% recovery | overall yield 10.5% | –
4 | Cyclo-(D-Lys(Tfa)-N-MeArg-Gly-Asp-Mamb) | – | – | step yield [1, 4]: 100%
5 | cyclo-(D-Leu-NMeArg-Gly-Asp-Mamb) | 29% recovery | overall yield 16.5% | step yield [1, 4]: 63%
6 | Bolton-Hunter conjugate of cyclo[D-Lys-N-MeArg-Gly-Asp-MAMB] | – | – | step yield [1, 4]: 60%
7 | cyclo-(Abu-NMeArg-Gly-Asp-Mamb) | – | overall yield 0.574% | –
8 | Cyclo-([[^99m TcO(mapt)]^- -D-Lys]-NMeArg-Gly-Asp-Mamb) | 14.7% recovery | overall yield 7.9% | step yield [1, 3]: 97%
9 | cyclo-(D-Val-NMeArg-Gly-Asp-3-aminomethyl-6-methoxybenzoic acid) | – | – | step yield [1, 5]: 63%
10 | Cyclo-(D-Lys-NMeArg-Gly-Asp-Mamb)-N-[4-(carboxy)benzyl]-N,N'-bis[(2-triphenylmethylthio)ethyl]glycinamide Conjugate | – | – | conjugation yield ([1]; TFA salt): 60%
11 | Boc-D-Val-NMeArg (Tos)-Gly-Asp(OcHex)-MAMB-Ox | – | – | step yield ([1]; coupling step, TFA salt): 86%
12 | TFA.D-Val-NMeArg(Tos)-Gly-Asp(OcHex)-MAMB-Ox | – | – | step yield [1, 4]: 98%
13 | Cyclo-([[^99m TcO(MAG3)]^- -D-Lys]-NMeArg-Gly-Asp-Mamb) | 6.4% recovery | overall yield 3.3% | –
14 | cyclo-(D-Val-NMeArg-Gly-Asp-3-aminomethyl-6-iodobenzoic Acid) | – | – | step yield ([2]; coupling step): 61%; cyclisation yield ([2]; cyclisation step): 38%
15 | cyclo-(D-Phe-NMeArg-Gly-Asp-Mamb) | 35% recovery | overall yield 8.7% | –
16 | cyclo-(D-Val-NMeArg-Gly-Asp-3-aminomethyl-6-chlorobenzoic acid) | – | – | step yield [1, 5]: 54%
17 | cyclo-(D-Nle-NMeArg-Gly-Asp-Mamb) | 44% recovery | overall yield 22.9% | –
18 | cyclo-(D-Phg-NMeArg-Gly-Asp-Mamb) | 24.2% recovery | overall yield 11.9% | –
19 | cyclo-(D-Val-NMeArg-Gly-Asp-Mamb) | – | – | step yield [1, 4]: 70%; step yield [1, 3]: 82%
20 | Cyclo-(D-Lys(Tfa)-N-MeArg(Tos)-Gly-Asp(OBzl)-Mamb) | – | – | cyclisation yield ([1]; cyclisation step, TFA salt): 57%
21 | Cyclo-(D-Val-NMeArg-Gly-Asp-Mamb([^99m TcO(MABA)]^- -5-Aca)) | 36% recovery | overall yield 19.9% | –
22 | Cyclo-(D-Lys(5-Aca)-NMeArg-Gly-Asp-Mamb) | – | – | step yield [1, 4]: 70%
23 | ^111 In-DTPA-[Cyclo-(D-Lys-NMeArg-Gly-Asp-Mamb)]2 | 13.2% recovery | overall yield 7.4% | step yield ([1]; late stage modification step, fluoride salt): 92.3% yield
24 | cyclo-(D-Val-D-NMeArg-Gly-Asp-Mamb) | 14.8% recovery | overall yield 5.3% | –
25 | Cyclo-(D-Val-NMeArg-Gly-Asp-Mamb(5-Aca))-N-[4-(carboxy)benzyl]-N,N'-bis[(2- triphenylmethylthio)ethyl]-glycinamide Conjugate | – | – | conjugation yield ([1]; TFA salt): 53%
26 | Cyclo-(D-Val-NMeArg-Gly-Asp-Mamb([^99m TcO(MA-MAMA)]-5-Aca)) | 57% recovery | overall yield 58.1% | step yield [1, 3]: 86%
27 | Cyclo-(D-Abu-NMeArg-Gly-Asp-Mamb([^99m TcO(MABA)]^- -5-Aca)) | – | overall yield 13.8% | step yield [1, 3]: 83%
28 | Cyclo-(D-Val-NMeArg-Gly-Asp-Mamb(5-Aca)) | – | overall yield 13.5% | –
29 | HCl.D-Lys(Tfa)-N-MeArg(Tos)-Gly-Asp(OBzl)-Mamb | – | – | step yield [1, 4]: 98%
